Among the data in patent US20250295803A1, “5T4 ANTIBODY-DRUG CONJUGATES AND USES THEREOF” (EXELIXIS, INC., priority 2022, published 2025) are binding values, retold here.

Results are given in words; binding and its absence hold for the method and conditions named. Some entries that bind do so weakly or less than the wild type.

This assay has as its target T1, human 5T4 produced internally (Lot 20-019-62) (human) (UniProt Q13641).
T1 sequence: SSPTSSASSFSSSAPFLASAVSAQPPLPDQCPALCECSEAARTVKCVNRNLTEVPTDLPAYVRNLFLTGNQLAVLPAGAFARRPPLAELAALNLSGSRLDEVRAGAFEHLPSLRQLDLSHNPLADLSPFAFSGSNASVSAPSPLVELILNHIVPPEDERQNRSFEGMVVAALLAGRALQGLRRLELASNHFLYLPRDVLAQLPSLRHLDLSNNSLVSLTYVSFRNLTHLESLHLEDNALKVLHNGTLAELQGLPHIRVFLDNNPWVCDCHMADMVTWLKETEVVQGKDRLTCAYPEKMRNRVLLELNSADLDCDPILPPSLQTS
In words: Octet, antibody on AHC sensors, human 5T4 in solution (monovalent); internal lot. On the technique in general: Biolayer interferometry detects binding as a change in optical thickness at a sensor tip.

B1: mAbA15 (antibody, V domains shown)
VH: EVQLVESGGGLVQPGGSLRLSCAASGFTFSSYYIHWVRQAPGKGLEWVAYITSTGSYTEYADSVKGRFTISADTSKNTAYLQMNSLRAEDTAVYYCARYDRSTRYSGLDYWGQGTLVTVSS
VL: DIQMTQSPSSLSASVGDRVTITCRASQSVSSAVAWYQQKPGKAPKLLIYSASSLYSGVPSRFSGSRSGTDFTLTISSLQPEDFATYYCQQAYATPVTFGQGTKVEIKR
notes: also called Antibody mAbA15
B1: the binding result is given as “binds”.

B2: mAbA17 (antibody, V domains shown)
VH: EVQLVESGGGLVQPGGSLRLSCAASGFTFSRYWIHWVRQAPGKGLEWVAAIFPYSGSTLYADSVKGRFTISADTSKNTAYLQMNSLRAEDTAVYYCARSPSRSILPSGLDYWGQGTLVTVSS
VL: DIQMTQSPSSLSASVGDRVTITCRASQSVSSAVAWYQQKPGKAPKLLIYSASSLYSGVPSRFSGSRSGTDFTLTISSLQPEDFATYYCQQGDGSPYTFGQGTKVEIKR
notes: also called Antibody mAbA17
Turning to B2, the binding result is “binds”.
